This assay deals with human HDL (high density lipoprotein) (human). The assay is described as follows: affinity coelectrophoresis (ACE), 125I-LBP run through HDL-containing agarose.

No constants are given. Whether binding was seen depends on the method and setting. Where a sequence is shown, tags or fusion partners need not be part of it.

Our source for the binding values is patent US6632923.

B1: recombinant rabbit LBP-2 clone 26 (6-His tag) (protein, not shown: small tags and cut ends)
chain: PPPPQQPQPPPEGGAARAGGPARPVSLREVVRYLGGSSGAGGRLTRGRVQGLLEEEAAARGRLERTRLGALALPRGDRPGRAPPAASARAARNKRAGEERVLEKEEEEEEEEDDEDDDDDVVSEGSEVPESDRPAGAQHHQLNGGERGPQTAKERAKEWSLCGPHPGQEEGRGPAAGSGTRQVFSMAALSKEGGSASSTTGPDSPSPVPLPPGKPALPGADGTPFGCPAGRKEKPADPVEWTVMDVVEYFTEAGFPEQATAFQEQEIDGKSLLLMQRTDVLTGLSIRLGPALKIYEHHIKVLQQGHFEDDDPEGFLG
modifications: 125I-labeled (Iodobeads) where used as the radiolabeled species in ACE assays
As for B1, the binding entry was “no binding”.
